Experimental data taken from PubChem BioAssay AID214 (DTP/NCI, 2004).
The list is a part of this screen's results and no random one: it gathers tests that were run many times, whatever their T/C, doses with no T/C, and many T/C values between a quarter and a half above the control. Further doses and runs are listed elsewhere. T/C is the treated group as % of the vehicle group. Schedules are NCI's codes, taken here to give the interval after Q, in days (D) or hours (H), and the number of doses after X. Some T/C values carry the count of animals alive at the toxicity check (mostly the fifth day); without a count, all were alive then. Some doses were run more than once; their values stand side by side, smallest first. Some entries give survivors of the animals treated and no T/C: the source files T/C as zero there, which appears to mark a toxic dose or a test without result, not a measured value. Some survivor counts are full or nearly so, which does not show that the dose was tolerated: the source hardly ever lists a survival T/C far under the control, and the zero likely stands for such cases as well. Counts of survivors are from the toxicity check (mostly the fifth day) where no day follows; animals may have died later. Where survival is the endpoint, the PubChem record calls one and a half times the control and up active, and a quarter to a half above the control has no call in these data; cut-offs in other NCI protocols can differ.

Test system: B6C3F1 mice, colon carcinoma 38 s.c., T/C
Assay: NCI In Vivo Anticancer Drug Screen. Data for tumor model Colon Carcinoma 38 (subcutaneous) in B6C3F1 mice
Experimental: The antitumor activity of compounds was measured in mice bearing transplantable tumors. Survival or tumor size were measured and the results are expressed as the measurement made in the treated group (T) divided by the measurement made in the vehicle treated control group (C). The tumor model used in this assay is Colon Carcinoma 38 (subcutaneous) in B6C3F1 mice

[1] = T/C endpoint: median tumor weight (est.), dose: 1200.0 mg/kg/injection, schedule: Q07DX002 (ip), vehicle: saline with Tween-80, higher T/C = larger tumour

CN(C)CCCNc1c2ccccc2nc2cccc([N+](=O)[O-])c12
T/C (T/C endpoint: median tumor weight (est.), dose: 0.03 mg/kg/injection, schedule: Q07DX002 (ip), vehicle: saline, evaluated on day 20, higher T/C = larger tumour): 136 % of control
T/C (T/C endpoint: median tumor weight (est.), dose: 0.12 mg/kg/injection, schedule: Q07DX002 (ip), vehicle: saline, evaluated on day 20, higher T/C = larger tumour): 53, 78, 88, 91, 124, 166, 199, 213, 228 % of control
T/C (T/C endpoint: median tumor weight (est.), dose: 0.25 mg/kg/injection, schedule: Q07DX002 (ip), vehicle: saline, evaluated on day 20, higher T/C = larger tumour): 58 [9 of 10 alive on day 20], 79 [9 of 10 alive on day 20], 116, 139, 162 [8 of 10 alive on day 20], 172 % of control
survivor count (T/C endpoint: median tumor weight (est.), dose: 0.25 mg/kg/injection, schedule: Q07DX002 (ip), vehicle: saline, higher T/C = larger tumour): 0 of 10 on day 20, 2 of 10 on day 20, 6 of 10 on day 20
T/C (T/C endpoint: median tumor weight (est.), dose: 0.5 mg/kg/injection, schedule: Q07DX002 (ip), vehicle: saline, evaluated on day 20, higher T/C = larger tumour): 76 % of control [9 of 10 alive on day 20]
survivor count (T/C endpoint: median tumor weight (est.), dose: 0.5 mg/kg/injection, schedule: Q07DX002 (ip), vehicle: saline, higher T/C = larger tumour): 0 of 10 on day 20, 1 of 10 on day 20, 2 of 10 on day 20, 5 of 10 on day 20, 6 of 10 on day 20
survivor count (T/C endpoint: median tumor weight (est.), dose: 1.0 mg/kg/injection, schedule: Q07DX002 (ip), vehicle: saline, higher T/C = larger tumour): 0 of 10 on day 20 and 1 of 10 on day 20

[Cl][Hg][Cl]
survivor count (T/C endpoint: median tumor weight (est.), dose: 6.25 mg/kg/injection, schedule: Q07DX002 (ip), vehicle: saline, higher T/C = larger tumour): 5 of 10 on day 20
survivor count (T/C endpoint: median tumor weight (est.), dose: 12.5 mg/kg/injection, schedule: Q07DX002 (ip), vehicle: saline, higher T/C = larger tumour): 0 of 10 on day 20
survivor count (T/C endpoint: median tumor weight (est.), dose: 25.0 mg/kg/injection, schedule: Q07DX002 (ip), vehicle: saline, higher T/C = larger tumour): 0 of 10 on day 20

O=c1c(O)c(-c2cc(O)c(O)c(O)c2)oc2cc(O)cc(O)c12
survivor count [1]: 0 of 10 on day 20
survivor count (T/C endpoint: median tumor weight (est.), dose: 1800.0 mg/kg/injection, schedule: Q07DX002 (ip), vehicle: saline with Tween-80, higher T/C = larger tumour): 1 of 10 on day 20

CCN(CC)CCOC(=O)Cc1cccc2c(=O)cc(-c3ccccc3)oc12
T/C (T/C endpoint: median survival time, dose: 12.5 mg/kg/injection, schedule: Q01DX001 (iv), vehicle: saline, higher T/C = longer survival): 127 % of control
survivor count (T/C endpoint: median survival time, dose: 12.5 mg/kg/injection, schedule: Q07DX002 (iv), vehicle: saline, higher T/C = longer survival): 8 of 10 on day 20
survivor count (T/C endpoint: median survival time, dose: 15.82 mg/kg/injection, schedule: Q01DX001 (iv), vehicle: saline, higher T/C = longer survival): 10 of 10 on day 20
survivor count (T/C endpoint: median survival time, dose: 25.0 mg/kg/injection, schedule: Q01DX001 (iv), vehicle: saline, higher T/C = longer survival): 9 of 10 on day 20
survivor count (T/C endpoint: median survival time, dose: 50.0 mg/kg/injection, schedule: Q01DX001 (iv), vehicle: saline, higher T/C = longer survival): 6 of 10 on day 20
survivor count (T/C endpoint: median survival time, dose: 50.0 mg/kg/injection, schedule: Q07DX002 (iv), vehicle: saline, higher T/C = longer survival): 2 of 10 on day 20 and 6 of 10 on day 20
T/C (T/C endpoint: median survival time, dose: 112.5 mg/kg/injection, schedule: Q01DX001 (ip), vehicle: saline, higher T/C = longer survival): 145 % of control
survivor count (T/C endpoint: median survival time, dose: 355.6 mg/kg/injection, schedule: Q07DX002 (ip), vehicle: saline, higher T/C = longer survival): 4 of 10 on day 20 and 6 of 10 on day 20
T/C (T/C endpoint: median tumor weight (est.), dose: 21.09 mg/kg/injection, schedule: Q07DX002 (iv), vehicle: saline, evaluated on day 20, higher T/C = larger tumour): 130 % of control
T/C (T/C endpoint: median tumor weight (est.), dose: 37.5 mg/kg/injection, schedule: Q01DX001 (iv), vehicle: saline, evaluated on day 20, higher T/C = larger tumour): 137 % of control [9 of 10 alive on day 20]
survivor count (T/C endpoint: median tumor weight (est.), dose: 50.0 mg/kg/injection, schedule: Q01DX001 (iv), vehicle: saline, higher T/C = larger tumour): 6 of 10 on day 20
T/C (T/C endpoint: median tumor weight (est.), dose: 50.0 mg/kg/injection, schedule: Q07DX002 (ip), vehicle: saline, evaluated on day 20, higher T/C = larger tumour): 1, 52 [8 of 10 alive on day 20], 57 [9 of 10 alive on day 20], 71 % of control [7 of 10 alive on day 20]
survivor count (T/C endpoint: median tumor weight (est.), dose: 50.0 mg/kg/injection, schedule: Q07DX002 (iv), vehicle: saline, higher T/C = larger tumour): 2 of 10 on day 20 and 6 of 10 on day 20
T/C (T/C endpoint: median tumor weight (est.), dose: 63.3 mg/kg/injection, schedule: Q01DX008 (ip), vehicle: saline, evaluated on day 20, higher T/C = larger tumour): 140 % of control [9 of 10 alive on day 20]
survivor count (T/C endpoint: median tumor weight (est.), dose: 63.3 mg/kg/injection, schedule: Q03HX024 (ip), vehicle: saline, higher T/C = larger tumour): 2 of 10 on day 20
survivor count (T/C endpoint: median tumor weight (est.), dose: 84.4 mg/kg/injection, schedule: Q03HX024 (ip), vehicle: saline, higher T/C = larger tumour): 0 of 10 on day 20
T/C (T/C endpoint: median tumor weight (est.), dose: 100.0 mg/kg/injection, schedule: Q07DX002 (ip), vehicle: saline, evaluated on day 20, higher T/C = larger tumour): 38, 64, 82 [8 of 10 alive on day 20], 95, 205 % of control
survivor count (T/C endpoint: median tumor weight (est.), dose: 112.5 mg/kg/injection, schedule: Q03HX024 (ip), vehicle: saline, higher T/C = larger tumour): 0 of 10 on day 20
survivor count (T/C endpoint: median tumor weight (est.), dose: 112.5 mg/kg/injection, schedule: Q06HX016 (ip), vehicle: saline, higher T/C = larger tumour): 5 of 10 on day 20
survivor count (T/C endpoint: median tumor weight (est.), dose: 150.0 mg/kg/injection, schedule: Q03HX006 (ip), vehicle: saline, higher T/C = larger tumour): 4 of 10 on day 20
survivor count (T/C endpoint: median tumor weight (est.), dose: 150.0 mg/kg/injection, schedule: Q06HX016 (ip), vehicle: saline, higher T/C = larger tumour): 0 of 10 on day 20
survivor count (T/C endpoint: median tumor weight (est.), dose: 200.0 mg/kg/injection, schedule: Q01DX008 (ip), vehicle: saline, higher T/C = larger tumour): 3 of 10 on day 20
survivor count (T/C endpoint: median tumor weight (est.), dose: 200.0 mg/kg/injection, schedule: Q03HX006 (ip), vehicle: saline, higher T/C = larger tumour): 1 of 10 on day 20
survivor count (T/C endpoint: median tumor weight (est.), dose: 266.7 mg/kg/injection, schedule: Q06HX004 (ip), vehicle: saline, higher T/C = larger tumour): 5 of 10 on day 20
survivor count (T/C endpoint: median tumor weight (est.), dose: 355.6 mg/kg/injection, schedule: Q06HX004 (ip), vehicle: saline, higher T/C = larger tumour): 0 of 10 on day 20
survivor count (T/C endpoint: median tumor weight (est.), dose: 355.6 mg/kg/injection, schedule: Q07DX002 (ip), vehicle: saline, higher T/C = larger tumour): 4 of 10 on day 20 and 6 of 10 on day 20

Cc1cc(N/N=C/c2ccccn2)nc2ccccc12
survivor count (T/C endpoint: median tumor weight (est.), dose: 400.0 mg/kg/injection, schedule: Q07DX002 (ip), vehicle: Klucel (hydroxypropylcellulose) (HPC), higher T/C = larger tumour): 1 of 9 on day 20

O=C(O)C1CC(O)CN1 (stereo not given)
T/C (T/C endpoint: median tumor weight (est.), dose: 200.0 mg/kg/injection, schedule: Q07DX002 (ip), vehicle: saline, evaluated on day 20, higher T/C = larger tumour): 149 % of control
T/C (T/C endpoint: median tumor weight (est.), dose: 800.0 mg/kg/injection, schedule: Q07DX002 (ip), vehicle: saline, evaluated on day 20, higher T/C = larger tumour): 138 % of control [9 of 10 alive on day 20]

C[C@@H]1CC[C@]2(C)CC[C@]3(C)C(=CC[C@@H]4[C@@]5(C)CC[C@@H](OC(=O)c6ccc(O)cc6)C(C)(C)[C@@H]5C[C@H](O)[C@]43C)[C@@H]2[C@H]1C(=O)O
T/C (T/C endpoint: median tumor weight (est.), dose: 0.25 mg/kg/injection, schedule: Q07DX002 (ip), vehicle: saline with Tween-80, evaluated on day 20, higher T/C = larger tumour): 138 % of control

O=[N+]([O-])c1ccc(N2CCOCC2)c2c1no[n+]2[O-]
T/C (T/C endpoint: median tumor weight (est.), dose: 25.0 mg/kg/injection, schedule: Q07DX002 (ip), vehicle: saline with Tween-80, evaluated on day 20, higher T/C = larger tumour): 125 % of control
survivor count (T/C endpoint: median tumor weight (est.), dose: 400.0 mg/kg/injection, schedule: Q07DX002 (ip), vehicle: saline with Tween-80, higher T/C = larger tumour): 3 of 10 on day 20

CCN(CC)CCNc1ccc(C)c2sc3ccccc3c(=O)c12
survivor count (T/C endpoint: median tumor weight (est.), dose: 400.0 mg/kg/injection, schedule: Q07DX002 (ip), vehicle: suspension in saline, higher T/C = larger tumour): 5 of 10 on day 20

COc1ccc(C(=O)C(CN(C)C)CN(C)C)cc1
survivor count (T/C endpoint: median tumor weight (est.), dose: 50.0 mg/kg/injection, schedule: Q07DX002 (ip), vehicle: saline, higher T/C = larger tumour): 1 of 10 on day 20
survivor count (T/C endpoint: median tumor weight (est.), dose: 100.0 mg/kg/injection, schedule: Q07DX002 (ip), vehicle: saline, higher T/C = larger tumour): 0 of 10 on day 20

COc1ccc2cc1Oc1ccc(cc1)C[C@H]1c3cc(c(OC)cc3CCN1C)Oc1c(OC)c(OC)cc3c1[C@H](C2)N(C)CC3
T/C (T/C endpoint: median tumor weight (est.), dose: 300.0 mg/kg/injection, schedule: Q07DX002 (ip), vehicle: saline with Tween-80, evaluated on day 20, higher T/C = larger tumour): 131 % of control
survivor count (T/C endpoint: median tumor weight (est.), dose: 600.0 mg/kg/injection, schedule: Q07DX002 (ip), vehicle: saline with Tween-80, higher T/C = larger tumour): 3 of 10 on day 20
survivor count [1]: 2 of 10 on day 20
